The numbers were not newly measured in patent publication EP4640213A1, “ORAL PHARMACEUTICAL PREPARATION COMPRISING SODIUM-GLUCOSE COTRANSPORTER-2 INHIBITOR AND ANGIOTENSIN II RECEPTOR BLOCKER” (THPharm Corp., priority 2022, dated 2024), which cites them from elsewhere.

Where only a bound is given, the exact number is not on record here.

For the data set the following is noted: background art; cited from earlier work.

In the case of `CCCc1nc2c(C)cc(-c3nc4ccccc4n3C)cc2n1Cc1ccc(-c2ccccc2C(=O)O)cc1` [Telmisartan, 4'-[(1,4'-dimethyl-2'-propyl[2,6'-bi-1H-benzimidazol]-1'-yl)methyl][1,1'-biphenyl]-2-carboxylic acid], the “difference in solubility by pH” value was not below 100 times.
